Source: publication PMC11773481
Results are given in words; binding and its absence hold for the method and conditions named. For part of these data: Binding seen in cells or lysates may run through a third protein. Some binding calls cover weakened binding; strength is not graded here. One block for each substance: values may come before it.

Sequences of proteins named here, by UniProt entry; tags and fusion partners are left off. A change or cut given only in a name is not applied to a line headed by its entry. A line that says so, or that is headed by a name, gives the form on record, which may keep a tag or linker.
UniProt Q86TI2: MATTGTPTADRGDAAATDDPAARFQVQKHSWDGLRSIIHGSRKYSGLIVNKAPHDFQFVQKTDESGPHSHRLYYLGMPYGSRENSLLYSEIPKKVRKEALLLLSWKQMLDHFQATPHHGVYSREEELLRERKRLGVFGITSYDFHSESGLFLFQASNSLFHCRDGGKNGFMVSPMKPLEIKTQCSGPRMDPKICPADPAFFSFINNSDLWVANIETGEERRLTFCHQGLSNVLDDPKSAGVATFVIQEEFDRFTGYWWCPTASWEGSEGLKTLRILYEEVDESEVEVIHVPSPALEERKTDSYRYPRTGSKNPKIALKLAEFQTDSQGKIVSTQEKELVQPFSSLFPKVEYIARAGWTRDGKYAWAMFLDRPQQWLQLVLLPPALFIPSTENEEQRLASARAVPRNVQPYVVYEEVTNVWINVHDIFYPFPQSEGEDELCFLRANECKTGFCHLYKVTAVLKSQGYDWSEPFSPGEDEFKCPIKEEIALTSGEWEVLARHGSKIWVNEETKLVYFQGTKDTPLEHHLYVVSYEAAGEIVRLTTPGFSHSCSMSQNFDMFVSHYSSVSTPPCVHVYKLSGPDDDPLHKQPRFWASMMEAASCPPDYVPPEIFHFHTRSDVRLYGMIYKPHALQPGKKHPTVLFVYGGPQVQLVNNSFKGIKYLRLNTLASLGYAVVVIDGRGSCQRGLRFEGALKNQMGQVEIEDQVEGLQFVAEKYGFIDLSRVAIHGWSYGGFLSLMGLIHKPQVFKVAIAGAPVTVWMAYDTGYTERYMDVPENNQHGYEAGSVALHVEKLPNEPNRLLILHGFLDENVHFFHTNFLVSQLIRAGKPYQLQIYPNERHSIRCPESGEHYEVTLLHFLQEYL
FLAG-tagged DPP9 Motif 2 deletion (Q86TI2, form named): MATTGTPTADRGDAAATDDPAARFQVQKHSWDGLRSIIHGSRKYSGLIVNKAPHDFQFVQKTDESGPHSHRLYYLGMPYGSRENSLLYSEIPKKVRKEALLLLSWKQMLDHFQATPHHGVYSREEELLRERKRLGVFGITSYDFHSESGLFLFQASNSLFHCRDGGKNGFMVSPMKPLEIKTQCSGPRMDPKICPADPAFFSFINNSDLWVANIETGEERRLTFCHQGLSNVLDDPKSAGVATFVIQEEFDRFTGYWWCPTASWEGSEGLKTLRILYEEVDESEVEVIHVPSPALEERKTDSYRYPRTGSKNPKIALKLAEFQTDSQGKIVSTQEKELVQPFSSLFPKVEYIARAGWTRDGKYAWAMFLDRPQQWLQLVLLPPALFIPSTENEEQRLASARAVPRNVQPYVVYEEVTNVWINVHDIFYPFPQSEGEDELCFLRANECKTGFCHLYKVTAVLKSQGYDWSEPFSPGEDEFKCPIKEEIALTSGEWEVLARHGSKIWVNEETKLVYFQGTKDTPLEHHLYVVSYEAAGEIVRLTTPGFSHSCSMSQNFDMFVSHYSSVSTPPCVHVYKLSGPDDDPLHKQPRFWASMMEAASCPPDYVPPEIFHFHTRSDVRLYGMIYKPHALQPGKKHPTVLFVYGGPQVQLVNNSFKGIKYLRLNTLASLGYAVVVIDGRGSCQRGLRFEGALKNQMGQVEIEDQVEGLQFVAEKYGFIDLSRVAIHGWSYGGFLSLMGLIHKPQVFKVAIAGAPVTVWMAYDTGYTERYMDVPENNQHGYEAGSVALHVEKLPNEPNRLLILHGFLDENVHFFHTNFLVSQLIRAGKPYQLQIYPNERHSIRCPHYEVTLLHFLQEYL
FLAG-tagged DPP9 Motif 1 deletion (Q86TI2, form named): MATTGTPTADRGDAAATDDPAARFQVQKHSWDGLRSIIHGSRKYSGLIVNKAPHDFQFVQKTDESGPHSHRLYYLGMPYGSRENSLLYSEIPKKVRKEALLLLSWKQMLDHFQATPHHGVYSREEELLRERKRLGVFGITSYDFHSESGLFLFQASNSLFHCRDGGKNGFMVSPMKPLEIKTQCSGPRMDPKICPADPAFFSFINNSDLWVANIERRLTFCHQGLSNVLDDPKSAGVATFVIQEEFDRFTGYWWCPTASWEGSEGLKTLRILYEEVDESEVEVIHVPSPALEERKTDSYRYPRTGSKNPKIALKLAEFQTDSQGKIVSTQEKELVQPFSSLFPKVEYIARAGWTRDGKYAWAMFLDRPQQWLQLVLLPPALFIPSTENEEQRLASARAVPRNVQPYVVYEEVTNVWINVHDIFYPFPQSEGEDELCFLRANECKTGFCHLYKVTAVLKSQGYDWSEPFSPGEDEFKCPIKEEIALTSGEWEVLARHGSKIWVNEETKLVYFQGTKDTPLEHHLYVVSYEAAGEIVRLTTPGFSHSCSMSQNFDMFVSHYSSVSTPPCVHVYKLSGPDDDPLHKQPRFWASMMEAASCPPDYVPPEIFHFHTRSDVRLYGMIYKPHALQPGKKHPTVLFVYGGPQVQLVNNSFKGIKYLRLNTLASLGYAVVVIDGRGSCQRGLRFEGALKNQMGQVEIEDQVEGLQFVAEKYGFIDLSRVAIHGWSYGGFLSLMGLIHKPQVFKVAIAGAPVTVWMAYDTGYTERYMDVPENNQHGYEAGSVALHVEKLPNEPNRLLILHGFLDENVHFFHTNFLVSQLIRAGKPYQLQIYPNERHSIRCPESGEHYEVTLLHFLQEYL
FLAG-tagged DPP9 Motif 1 EAGA mutant (Q86TI2, form named): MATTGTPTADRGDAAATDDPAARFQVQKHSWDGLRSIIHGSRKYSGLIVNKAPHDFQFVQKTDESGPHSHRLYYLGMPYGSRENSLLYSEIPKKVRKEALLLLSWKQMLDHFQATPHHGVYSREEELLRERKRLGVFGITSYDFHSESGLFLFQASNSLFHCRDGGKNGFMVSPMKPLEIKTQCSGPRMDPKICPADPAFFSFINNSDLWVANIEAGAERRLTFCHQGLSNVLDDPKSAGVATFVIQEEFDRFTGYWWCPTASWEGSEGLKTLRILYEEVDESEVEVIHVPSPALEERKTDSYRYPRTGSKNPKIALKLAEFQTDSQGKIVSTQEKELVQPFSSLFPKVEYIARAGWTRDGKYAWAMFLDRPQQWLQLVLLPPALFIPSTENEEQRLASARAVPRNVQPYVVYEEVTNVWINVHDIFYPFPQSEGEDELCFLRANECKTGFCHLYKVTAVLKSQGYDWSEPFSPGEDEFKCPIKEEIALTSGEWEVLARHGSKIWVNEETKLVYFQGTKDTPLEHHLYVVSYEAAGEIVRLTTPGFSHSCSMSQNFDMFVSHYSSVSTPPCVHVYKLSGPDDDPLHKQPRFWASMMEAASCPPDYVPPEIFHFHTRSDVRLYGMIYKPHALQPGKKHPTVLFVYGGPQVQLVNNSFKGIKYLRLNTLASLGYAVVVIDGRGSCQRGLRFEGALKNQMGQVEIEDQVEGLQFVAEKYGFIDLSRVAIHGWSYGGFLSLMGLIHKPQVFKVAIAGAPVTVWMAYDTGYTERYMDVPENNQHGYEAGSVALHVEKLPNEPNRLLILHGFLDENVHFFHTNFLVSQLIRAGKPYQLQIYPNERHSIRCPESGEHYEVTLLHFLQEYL
FLAG-tagged DPP9 Motif 1 AAAA mutant (Q86TI2, form named): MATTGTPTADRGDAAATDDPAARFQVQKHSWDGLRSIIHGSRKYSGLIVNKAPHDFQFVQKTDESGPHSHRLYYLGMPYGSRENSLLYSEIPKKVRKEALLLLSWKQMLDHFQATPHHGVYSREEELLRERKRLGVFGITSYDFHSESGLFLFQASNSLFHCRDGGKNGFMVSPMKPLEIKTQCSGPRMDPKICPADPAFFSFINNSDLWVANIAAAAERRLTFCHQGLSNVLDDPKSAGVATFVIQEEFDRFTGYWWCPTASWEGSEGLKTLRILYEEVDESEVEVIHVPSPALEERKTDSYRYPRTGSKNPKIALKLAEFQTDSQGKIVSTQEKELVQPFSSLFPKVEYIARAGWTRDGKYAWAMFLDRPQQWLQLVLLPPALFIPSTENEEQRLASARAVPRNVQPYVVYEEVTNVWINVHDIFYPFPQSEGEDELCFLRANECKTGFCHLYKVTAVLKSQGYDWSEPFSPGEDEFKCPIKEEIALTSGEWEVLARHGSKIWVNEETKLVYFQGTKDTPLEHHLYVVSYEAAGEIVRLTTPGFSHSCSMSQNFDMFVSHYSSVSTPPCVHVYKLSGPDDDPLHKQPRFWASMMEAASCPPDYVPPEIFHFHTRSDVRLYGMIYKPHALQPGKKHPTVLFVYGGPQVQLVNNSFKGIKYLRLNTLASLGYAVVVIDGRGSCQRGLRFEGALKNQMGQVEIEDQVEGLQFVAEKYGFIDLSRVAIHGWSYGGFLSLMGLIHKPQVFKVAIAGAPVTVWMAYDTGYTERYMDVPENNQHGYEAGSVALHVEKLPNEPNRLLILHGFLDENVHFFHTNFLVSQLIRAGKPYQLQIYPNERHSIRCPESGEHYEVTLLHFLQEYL
FLAG-tagged DPP9 Motif 2 EAGA mutant (Q86TI2, form named): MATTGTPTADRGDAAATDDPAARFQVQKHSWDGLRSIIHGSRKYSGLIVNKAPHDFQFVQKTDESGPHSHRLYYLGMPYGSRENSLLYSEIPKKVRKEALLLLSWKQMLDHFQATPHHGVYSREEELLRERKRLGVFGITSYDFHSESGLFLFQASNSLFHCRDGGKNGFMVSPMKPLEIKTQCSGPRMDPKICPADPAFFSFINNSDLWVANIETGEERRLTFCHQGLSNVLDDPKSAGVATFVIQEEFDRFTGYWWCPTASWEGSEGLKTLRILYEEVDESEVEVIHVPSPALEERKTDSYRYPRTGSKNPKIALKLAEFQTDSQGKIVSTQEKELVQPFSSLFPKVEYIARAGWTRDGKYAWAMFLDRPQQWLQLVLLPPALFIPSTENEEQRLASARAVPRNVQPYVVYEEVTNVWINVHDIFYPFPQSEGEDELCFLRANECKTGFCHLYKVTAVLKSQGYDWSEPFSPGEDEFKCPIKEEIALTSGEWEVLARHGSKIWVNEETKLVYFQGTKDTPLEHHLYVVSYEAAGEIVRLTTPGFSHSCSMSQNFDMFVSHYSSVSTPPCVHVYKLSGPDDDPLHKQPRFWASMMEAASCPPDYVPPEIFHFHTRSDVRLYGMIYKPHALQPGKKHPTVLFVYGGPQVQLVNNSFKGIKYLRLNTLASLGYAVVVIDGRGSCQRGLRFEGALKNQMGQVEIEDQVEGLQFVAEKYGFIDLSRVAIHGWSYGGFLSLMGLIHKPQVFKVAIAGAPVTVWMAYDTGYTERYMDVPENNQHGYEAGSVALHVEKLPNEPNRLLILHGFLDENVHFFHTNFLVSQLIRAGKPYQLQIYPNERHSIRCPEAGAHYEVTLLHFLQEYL
FLAG-tagged DPP9 Motif 2 AAAA mutant (Q86TI2, form named): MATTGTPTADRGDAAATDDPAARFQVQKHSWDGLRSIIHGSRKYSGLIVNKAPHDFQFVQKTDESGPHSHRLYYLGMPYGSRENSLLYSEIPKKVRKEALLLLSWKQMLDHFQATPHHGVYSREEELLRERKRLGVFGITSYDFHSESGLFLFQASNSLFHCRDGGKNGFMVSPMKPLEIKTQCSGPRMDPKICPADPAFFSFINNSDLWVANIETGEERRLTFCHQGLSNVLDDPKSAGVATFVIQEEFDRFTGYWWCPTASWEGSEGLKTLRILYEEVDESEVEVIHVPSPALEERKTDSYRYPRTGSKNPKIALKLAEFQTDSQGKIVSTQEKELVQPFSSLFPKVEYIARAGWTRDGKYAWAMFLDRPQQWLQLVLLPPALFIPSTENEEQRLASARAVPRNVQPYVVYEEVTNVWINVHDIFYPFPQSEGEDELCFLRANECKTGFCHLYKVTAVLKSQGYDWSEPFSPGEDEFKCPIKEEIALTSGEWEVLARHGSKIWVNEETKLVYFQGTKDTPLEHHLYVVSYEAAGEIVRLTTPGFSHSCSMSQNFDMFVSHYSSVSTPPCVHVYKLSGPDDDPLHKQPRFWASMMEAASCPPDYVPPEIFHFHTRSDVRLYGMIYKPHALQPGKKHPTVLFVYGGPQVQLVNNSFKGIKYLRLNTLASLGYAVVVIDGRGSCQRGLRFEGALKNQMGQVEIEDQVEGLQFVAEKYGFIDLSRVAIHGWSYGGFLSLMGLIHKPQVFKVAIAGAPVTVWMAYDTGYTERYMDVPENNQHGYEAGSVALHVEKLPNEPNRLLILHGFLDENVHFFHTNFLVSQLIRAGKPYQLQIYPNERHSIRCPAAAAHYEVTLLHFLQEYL
UniProt Q9Y2G2: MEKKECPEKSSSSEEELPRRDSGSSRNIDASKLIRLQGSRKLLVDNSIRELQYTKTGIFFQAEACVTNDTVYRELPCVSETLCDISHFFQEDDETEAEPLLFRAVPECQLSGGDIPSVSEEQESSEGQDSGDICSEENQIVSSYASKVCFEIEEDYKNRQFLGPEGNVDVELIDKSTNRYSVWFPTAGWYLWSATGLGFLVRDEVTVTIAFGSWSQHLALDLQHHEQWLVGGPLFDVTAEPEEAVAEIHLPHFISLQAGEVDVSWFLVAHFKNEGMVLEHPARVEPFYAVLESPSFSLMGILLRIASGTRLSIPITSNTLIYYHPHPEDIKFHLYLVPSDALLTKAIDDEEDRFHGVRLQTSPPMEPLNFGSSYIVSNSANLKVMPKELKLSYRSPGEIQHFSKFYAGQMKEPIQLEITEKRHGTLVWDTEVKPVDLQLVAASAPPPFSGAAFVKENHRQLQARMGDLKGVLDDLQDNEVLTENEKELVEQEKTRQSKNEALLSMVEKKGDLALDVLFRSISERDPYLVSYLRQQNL

Experiments:
[1] = molecular target: FLAG-tagged DPP9 Motif 2 deletion (UniProt Q86TI2); test: native gel or EMSA; Blue Native-PAGE (4 to 16% NativePage, 0.25% G-250) of anti-FLAG agarose purified DPP9 variants from DPP8/9−/− HEK 293T cells, immunoblot; both purified
[2] = molecular target: FLAG-tagged DPP9 Motif 1 deletion (UniProt Q86TI2); test: as above
[3] = molecular target: FLAG-tagged DPP9 Motif 1 EAGA mutant (UniProt Q86TI2); test: as above
DPP9 C844I = DPP9 C844I (UniProt Q86TI2); test: co-IP; proteins transiently expressed in DPP8/9−/− HEK 293T cells; clarified lysates on anti-FLAG M2 agarose 1 h at 4 °C, PBS washes, 3X-FLAG peptide elution, immunoblot; VbP (10 μΜ) on cells or DTT (10 mM) on beads had no effect
DPP9 C844M = DPP9 C844M (UniProt Q86TI2); test: as above
DPP9 C844G = DPP9 C844G (UniProt Q86TI2); test: as above
DPP9 C844Q = DPP9 C844Q (UniProt Q86TI2); test: as above
DPP9 C844A = DPP9 C844A (UniProt Q86TI2); test: as above
DPP9 C844R = DPP9 C844R (UniProt Q86TI2); test: as above
FLAG-tagged CARD8 = FLAG-tagged CARD8 (UniProt Q9Y2G2); test: as above
[4] = molecular target: FLAG-tagged DPP9 Motif 1 AAAA mutant (UniProt Q86TI2); test: native gel or EMSA; Blue Native-PAGE (4 to 16% NativePage, 0.25% G-250) of anti-FLAG agarose purified DPP9 variants from DPP8/9−/− HEK 293T cells, immunoblot; both purified
[5] = molecular target: FLAG-tagged DPP9 Motif 2 EAGA mutant (UniProt Q86TI2); test: co-IP; proteins transiently expressed in DPP8/9−/− HEK 293T cells; clarified lysates on anti-FLAG M2 agarose 1 h at 4 °C, PBS washes, 3X-FLAG peptide elution, immunoblot; VbP (10 μΜ) on cells or DTT (10 mM) on beads had no effect
[6] = molecular target: FLAG-tagged DPP9 Motif 2 deletion (UniProt Q86TI2); test: as above
FLAG-tagged DPP8 = FLAG-tagged DPP8 (UniProt Q6V1X1); test: as above
[7] = molecular target: FLAG-tagged DPP9 Motif 1 deletion (UniProt Q86TI2); test: as above
[8] = molecular target: FLAG-tagged DPP9 Motif 1 EAGA mutant (UniProt Q86TI2); test: as above
[9] = molecular target: FLAG-tagged DPP9 Motif 1 AAAA mutant (UniProt Q86TI2); test: as above
[10] = molecular target: FLAG-tagged DPP9 Motif 2 AAAA mutant (UniProt Q86TI2); test: as above

binding [1]: no binding
Substance: FLAG-tagged DPP9 Motif 2 deletion (from UniProt Q86TI2 1-863) (enzyme)

binding [2]: no binding
Substance: FLAG-tagged DPP9 Motif 1 deletion (from UniProt Q86TI2 1-863) (enzyme)

binding [3]: no binding
Substance: FLAG-tagged DPP9 Motif 1 EAGA mutant (from UniProt Q86TI2 1-863) (enzyme)

binding (DPP9 C844I): no binding
binding (DPP9 C844M): no binding
binding (DPP9 C844G): no binding
binding (DPP9 C844Q): no binding
binding (DPP9 C844A): no binding
binding (DPP9 C844R): no binding
Substance: KEAP1 as used in Figure 5E–G (from UniProt Q14145 1-624)

binding (FLAG-tagged CARD8): binds
Substance: V5-tagged DPP9 (from UniProt Q86TI2 1-863) (enzyme)

binding [4]: no binding
Substance: FLAG-tagged DPP9 Motif 1 AAAA mutant (from UniProt Q86TI2 1-863) (enzyme)

binding [5]: no binding
binding [6]: no binding
binding (FLAG-tagged DPP8): no binding
binding [7]: binds
binding [8]: binds
binding [9]: binds
binding [10]: no binding
Substance: endogenous KEAP1 (from UniProt Q14145 1-624)
